Data from publication doi:10.1101/2024.08.12.607668 (bioRxiv, 2024).
Results are given in words; binding and its absence hold for the method and conditions named. For some assays here: Binding can be weak; no strength is given. Tags and fused reporters may be left off the sequences shown.

Key:
[1] = biological target: AbrBBS K76A mutant, His6-tagged (B. subtilis 168); experiment: native gel or EMSA
[2] = biological target: AbrBBS R15A mutant, His6-tagged (B. subtilis 168); experiment: native gel or EMSA

binding [1]: binds
binding [2]: no binding
B1: AbrB antirepressor AbbA from B. subtilis 168, His6-tagged (natural protein, UniProt O31697 1-65, looked up)
chain: MRMSLIGERFTEEEQKLLLNILINHEYAIELLSSEINDIETGTKNVDGTTYKKLVTLYDRFRFEN
